# Laboratory results taken from the supplement of paper PMC8728848.
# The list shows a part of the results.
# B1: LysMD3 (Homo sapiens), Q7Z3D4 (protein)
# chain: MAGRHQNRSFPLPGVQSSGQVHAFGNCSDSDILEEDAEVYELRSRGKEKVRRSTSRDRLDDIIVLTKDIQEGDTLNAIALQYCCTVADIKRVNNLISDQDFFALRSIKIPVKKFSSLTETLCPPKGRQTSRHSSVQYSSEQQEILPANDSLAYSDSAGSFLKEVDRDIEQIVKCTDNKRENLNEVVSALTAQQMRFEPDNKNTQRKDPYYGADWGIG
# Assays:
# Test in all cases: glycan array binding signal (z-score within array); higher = stronger binding
# Conditions in all cases: glycan notation: IUPAC condensed, linker removed
# [1] = molecular target: GlcNAc(b1-4)GlcNAc(b1-4)GlcNAc(b1-4)GlcNAc(b1-4)GlcNAc
# How it was run: (§1)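 The binding signal is a Z-score computed within each array. Data were drawn from 3228 arrays in the Consortium for Functional Glycomics database, restricted to those with a known protein sequence. Scores were averaged over arrays of the same protein sequence at different concentrations or buffers, and over linkers, and negative values can be taken as non-binding.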
# [2] = molecular target: GlcNAc(b1-4)GlcNAc(b1-4)GlcNAc(b1-4)GlcNAc(b1-4)GlcNAc(b1-4)GlcNAc
# How it was run: as §1
# [3] = molecular target: GlcNAc(b1-4)[GlcNAc(b1-6)]GalNAc
# How it was run: as §1
# [4] = molecular target: GlcNAc(b1-6)Gal(b1-4)GlcNAc
# How it was run: as §1
# GlcNAc(b1-6)GalNAc = molecular target: GlcNAc(b1-6)GalNAc
# How it was run: as §1
# [5] = molecular target: GlcNAc6S(b1-3)Gal(b1-4)GlcNAc
# How it was run: as §1
# Kdn(a2-3)Gal(b1-3)GalNAc = molecular target: Kdn(a2-3)Gal(b1-3)GalNAc
# How it was run: as §1
# Kdn(a2-3)Gal(b1-3)GlcNAc = molecular target: Kdn(a2-3)Gal(b1-3)GlcNAc
# How it was run: as §1
# Kdn(a2-3)Gal(b1-4)Glc = molecular target: Kdn(a2-3)Gal(b1-4)Glc
# How it was run: as §1
# Kdn(a2-3)Gal(b1-4)GlcNAc = molecular target: Kdn(a2-3)Gal(b1-4)GlcNAc
# How it was run: as §1
# [6] = molecular target: Kdn(a2-3)Gal(b1-4)[Fuc(a1-3)]GlcNAc
# How it was run: as §1
# Kdn(a2-6)Gal(b1-4)GlcNAc = molecular target: Kdn(a2-6)Gal(b1-4)GlcNAc
# How it was run: as §1
# [7] = molecular target: Man(a1-2)Man(a1-2)Man(a1-3)Man
# How it was run: as §1
# [8] = molecular target: Man(a1-2)Man(a1-2)Man(a1-6)[Man(a1-3)]Man
# How it was run: as §1
# Man(a1-2)Man(a1-3)Man = molecular target: Man(a1-2)Man(a1-3)Man
# How it was run: as §1
# [9] = molecular target: Man(a1-2)Man(a1-3)[Man(a1-2)Man(a1-6)]Man
# How it was run: as §1
# [10] = molecular target: Man(a1-2)Man(a1-3)[Man(a1-2)Man(a1-6)]Man(a1-6)[Man(a1-2)Man(a1-2)Man(a1-3)]Man
# How it was run: as §1
# [11] = molecular target: Man(a1-2)Man(a1-3)[Man(a1-2)Man(a1-6)]Man(a1-6)[Man(a1-2)Man(a1-2)Man(a1-3)]Man(b1-4)GlcNAc(b1-4)GlcNAc
# How it was run: as §1
# [12] = molecular target: Man(a1-2)Man(a1-3)[Man(a1-6)]Man(a1-6)[Man(a1-2)Man(a1-3)]Man(b1-4)GlcNAc(b1-4)GlcNAc
# How it was run: as §1
# [13] = molecular target: Man(a1-2)Man(a1-6)[Man(a1-3)]Man(a1-6)[Man(a1-2)Man(a1-2)Man(a1-3)]Man
# How it was run: as §1
# [14] = molecular target: Man(a1-2)Man(a1-6)[Man(a1-3)]Man(a1-6)[Man(a1-2)Man(a1-2)Man(a1-3)]Man(b1-4)GlcNAc(b1-4)GlcNAc
# How it was run: as §1
# Man(a1-3)[Man(a1-6)]Man = molecular target: Man(a1-3)[Man(a1-6)]Man
# How it was run: as §1
# [15] = molecular target: Man(a1-3)[Man(a1-6)]Man(a1-6)[Man(a1-2)Man(a1-3)]Man(b1-4)GlcNAc(b1-4)GlcNAc
# How it was run: as §1
# [16] = molecular target: Man(a1-3)[Man(a1-6)]Man(a1-6)[Man(a1-3)]Man
# How it was run: as §1
# [17] = molecular target: Man(a1-3)[Man(a1-6)]Man(a1-6)[Man(a1-3)]Man(b1-4)GlcNAc(b1-4)GlcNAc
# How it was run: as §1
# [18] = molecular target: Man(a1-3)[Man(a1-6)]Man(b1-4)GlcNAc(b1-4)GlcNAc
# How it was run: as §1
# [19] = molecular target: Man(a1-3)[Man(a1-6)]Man(b1-4)GlcNAc(b1-4)[Fuc(a1-6)]GlcNAc
# How it was run: as §1
# Man(a1-6)Man = molecular target: Man(a1-6)Man
# How it was run: as §1
# Man(b1-4)GlcNAc = molecular target: Man(b1-4)GlcNAc
# How it was run: as §1
# MurNAc(b1-4)GlcNAc = molecular target: MurNAc(b1-4)GlcNAc
# How it was run: as §1
# Neu5Ac(a2-3)Gal = molecular target: Neu5Ac(a2-3)Gal
# How it was run: as §1
# [20] = molecular target: Neu5Ac(a2-3)Gal(b1-3)GalNAc
# How it was run: as §1
# [21] = molecular target: Neu5Ac(a2-3)Gal(b1-3)GalNAc(b1-3)Gal(a1-4)Gal(b1-4)Glc
# How it was run: as §1
# [22] = molecular target: Neu5Ac(a2-3)Gal(b1-3)GalNAc(b1-4)Gal(b1-4)Glc
# How it was run: as §1
# [23] = molecular target: Neu5Ac(a2-3)Gal(b1-3)GalNAc(b1-4)[Neu5Ac(a2-3)]Gal(b1-4)Glc
# How it was run: as §1
# [24] = molecular target: Neu5Ac(a2-3)Gal(b1-3)GalNAc(b1-4)[Neu5Ac(a2-8)Neu5Ac(a2-3)]Gal(b1-4)Glc
# How it was run: as §1
# [25] = molecular target: Neu5Ac(a2-3)Gal(b1-3)GalNAc6S
# How it was run: as §1
# [26] = molecular target: Neu5Ac(a2-3)Gal(b1-3)GlcNAc
# How it was run: as §1
# [27] = molecular target: Neu5Ac(a2-3)Gal(b1-3)GlcNAc(b1-2)Man
# How it was run: as §1
# [28] = molecular target: Neu5Ac(a2-3)Gal(b1-3)GlcNAc(b1-2)Man(a1-3)[GlcNAc(b1-4)][Neu5Ac(a2-3)Gal(b1-3)GlcNAc(b1-2)Man(a1-6)]Man(b1-4)GlcNAc(b1-4)GlcNAc
# How it was run: as §1
# [29] = molecular target: Neu5Ac(a2-3)Gal(b1-3)GlcNAc(b1-2)Man(a1-3)[Neu5Ac(a2-3)Gal(b1-3)GlcNAc(b1-2)Man(a1-6)]Man(b1-4)GlcNAc(b1-4)GlcNAc
# How it was run: as §1
# [30] = molecular target: Neu5Ac(a2-3)Gal(b1-3)GlcNAc(b1-2)[Neu5Ac(a2-3)Gal(b1-3)GlcNAc(b1-4)]Man(a1-6)[Neu5Ac(a2-3)Gal(b1-3)GlcNAc(b1-2)Man(a1-3)]Man(b1-4)GlcNAc(b1-4)GlcNAc
# How it was run: as §1
# [31] = molecular target: Neu5Ac(a2-3)Gal(b1-3)GlcNAc(b1-3)Gal(b1-3)GlcNAc
# How it was run: as §1
# [32] = molecular target: Neu5Ac(a2-3)Gal(b1-3)GlcNAc(b1-3)Gal(b1-4)GlcNAc
# How it was run: as §1
# [33] = molecular target: Neu5Ac(a2-3)Gal(b1-3)GlcNAc(b1-3)GalNAc
# How it was run: as §1
binder,measurement,setting,value
B1,glycan array binding signal (z-score),[1],-0.593
same,glycan array binding signal (z-score),[2],-0.487
same,glycan array binding signal (z-score),[3],0.46
same,glycan array binding signal (z-score),[4],-0.722
same,glycan array binding signal (z-score),GlcNAc(b1-6)GalNAc,0.427
same,glycan array binding signal (z-score),[5],-0.752
same,glycan array binding signal (z-score),Kdn(a2-3)Gal(b1-3)GalNAc,0.37
same,glycan array binding signal (z-score),Kdn(a2-3)Gal(b1-3)GlcNAc,0.321
same,glycan array binding signal (z-score),Kdn(a2-3)Gal(b1-4)Glc,0.389
same,glycan array binding signal (z-score),Kdn(a2-3)Gal(b1-4)GlcNAc,0.469
same,glycan array binding signal (z-score),[6],-0.234
same,glycan array binding signal (z-score),Kdn(a2-6)Gal(b1-4)GlcNAc,0.967
same,glycan array binding signal (z-score),[7],1.12
same,glycan array binding signal (z-score),[8],0.196
same,glycan array binding signal (z-score),Man(a1-2)Man(a1-3)Man,1.3
same,glycan array binding signal (z-score),[9],-0.06
same,glycan array binding signal (z-score),[10],0.422
same,glycan array binding signal (z-score),[11],0.209
same,glycan array binding signal (z-score),[12],-0.627
same,glycan array binding signal (z-score),[13],0.458
same,glycan array binding signal (z-score),[14],-0.445
same,glycan array binding signal (z-score),Man(a1-3)[Man(a1-6)]Man,0.098
same,glycan array binding signal (z-score),[15],0.207
same,glycan array binding signal (z-score),[16],-1.07
same,glycan array binding signal (z-score),[17],-0.113
same,glycan array binding signal (z-score),[18],-0.343
same,glycan array binding signal (z-score),[19],-0.85
same,glycan array binding signal (z-score),Man(a1-6)Man,-0.963
same,glycan array binding signal (z-score),Man(b1-4)GlcNAc,-0.259
same,glycan array binding signal (z-score),MurNAc(b1-4)GlcNAc,0.119
same,glycan array binding signal (z-score),Neu5Ac(a2-3)Gal,-0.312
same,glycan array binding signal (z-score),[20],-0.71
same,glycan array binding signal (z-score),[21],-0.258
same,glycan array binding signal (z-score),[22],0.227
same,glycan array binding signal (z-score),[23],-0.402
same,glycan array binding signal (z-score),[24],-0.528
same,glycan array binding signal (z-score),[25],-0.837
same,glycan array binding signal (z-score),[26],-0.413
same,glycan array binding signal (z-score),[27],-0.023
same,glycan array binding signal (z-score),[28],-0.304
same,glycan array binding signal (z-score),[29],-0.729
same,glycan array binding signal (z-score),[30],-0.094
same,glycan array binding signal (z-score),[31],-0.197
same,glycan array binding signal (z-score),[32],1.11
same,glycan array binding signal (z-score),[33],-0.758

# 9 consecutive records already listed, quoted:
binder,measurement,setting,value
B1,glycan array binding signal (z-score),[3],0.46
same,glycan array binding signal (z-score),[4],-0.722
same,glycan array binding signal (z-score),GlcNAc(b1-6)GalNAc,0.427
same,glycan array binding signal (z-score),[5],-0.752
same,glycan array binding signal (z-score),Kdn(a2-3)Gal(b1-3)GalNAc,0.37
same,glycan array binding signal (z-score),Kdn(a2-3)Gal(b1-3)GlcNAc,0.321
same,glycan array binding signal (z-score),Kdn(a2-3)Gal(b1-4)Glc,0.389
same,glycan array binding signal (z-score),Kdn(a2-3)Gal(b1-4)GlcNAc,0.469
same,glycan array binding signal (z-score),[6],-0.234
